{"source": "PubChem BioAssay AID1508597 (Cure First, 2020)", "test": "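Knock-downs altering ovarian cancer cell survival with or without PARP inhibitor rucaparib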 (primary screen)", "system": "human ovarian carcinoma lines grown from tumours: OCI-P5x (papillary serous) and OCI-C5x (clear cell)", "knock-down reagent": "siRNA pool against human genes, 1.25 pmol siRNA per well", "time to read-out": "72 h or 96 h, depending on the cell culture", "conditions": "rucaparib 20 µM (about IC30) or vehicle, present until read-out", "rucaparib or vehicle": "Vehicle", "cell line": "OCI-C5x (clear cell)", "measurement": "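ATP luminescence measured at 72 or 96 h according to the culture, then normalised and expressed as percent viability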", "reading the numbers": "viability, normalised: higher = more viable cells remaining", "rule for the call": "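Active when normalised viability falls below 80 percent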", "meaning of the calls": "active = viability under 80%; inactive = viability 80% or more", "note": "Shown is an unselected part of the about 2,100 reagents, under one of the conditions tested. 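Calls flag viability under 80% in either arm, not effects specific to rucaparib; the reference for percent is not stated.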 Some reagents were tested in more than one well and are listed for each. Not given: the 100% reference."}
{"target": "PRDM16", "technical replicate": "1", "viability, normalised (%)": 40.6, "Call": "active"}
{"target": "PRDM16", "technical replicate": "2", "viability, normalised (%)": 37.4, "Call": "active"}
{"target": "PRDM16", "technical replicate": "3", "viability, normalised (%)": 39.7, "Call": "active"}
{"target": "POU1F1", "technical replicate": "1", "viability, normalised (%)": 36.8, "Call": "active"}
{"target": "POU1F1", "technical replicate": "2", "viability, normalised (%)": 34.2, "Call": "active"}
{"target": "POU1F1", "technical replicate": "3", "viability, normalised (%)": 37.8, "Call": "active"}
{"target": "PTPN9", "technical replicate": "1", "viability, normalised (%)": 62.4, "Call": "active"}
{"target": "PTPN9", "technical replicate": "2", "viability, normalised (%)": 48.9, "Call": "active"}
{"target": "PTPN9", "technical replicate": "3", "viability, normalised (%)": 45.6, "Call": "active"}
{"target": "MED22", "technical replicate": "1", "viability, normalised (%)": 51.2, "Call": "active"}
{"target": "MED22", "technical replicate": "2", "viability, normalised (%)": 47.3, "Call": "active"}
{"target": "MED22", "technical replicate": "3", "viability, normalised (%)": 47.6, "Call": "active"}
{"target": "RAD18", "technical replicate": "1", "viability, normalised (%)": 62.5, "Call": "active"}
{"target": "RAD18", "technical replicate": "1", "viability, normalised (%)": 79.6, "Call": "active"}
{"target": "RAD18", "technical replicate": "2", "viability, normalised (%)": 50.2, "Call": "active"}
{"target": "RAD18", "technical replicate": "2", "viability, normalised (%)": 69.4, "Call": "active"}
{"target": "RAD18", "technical replicate": "3", "viability, normalised (%)": 42.9, "Call": "active"}
{"target": "RAD18", "technical replicate": "3", "viability, normalised (%)": 68.9, "Call": "active"}
{"target": "LYN", "technical replicate": "1", "viability, normalised (%)": 46.6, "Call": "active"}
{"target": "LYN", "technical replicate": "2", "viability, normalised (%)": 67.9, "Call": "active"}
{"target": "LYN", "technical replicate": "3", "viability, normalised (%)": 51.9, "Call": "active"}
{"target": "DPF2", "technical replicate": "1", "viability, normalised (%)": 40.3, "Call": "active"}
{"target": "DPF2", "technical replicate": "2", "viability, normalised (%)": 48.4, "Call": "active"}
{"target": "DPF2", "technical replicate": "3", "viability, normalised (%)": 42.1, "Call": "active"}
{"target": "DTX3L", "technical replicate": "1", "viability, normalised (%)": 63.3, "Call": "active"}
{"target": "DTX3L", "technical replicate": "2", "viability, normalised (%)": 80.9, "Call": "inactive"}
{"target": "DTX3L", "technical replicate": "3", "viability, normalised (%)": 73.8, "Call": "active"}
{"target": "RBM10", "technical replicate": "1", "viability, normalised (%)": 56.1, "Call": "active"}
{"target": "RBM10", "technical replicate": "2", "viability, normalised (%)": 44.2, "Call": "active"}
{"target": "RBM10", "technical replicate": "3", "viability, normalised (%)": 38, "Call": "active"}
{"target": "JMJD8", "technical replicate": "1", "viability, normalised (%)": 53.3, "Call": "active"}
{"target": "JMJD8", "technical replicate": "2", "viability, normalised (%)": 47.5, "Call": "active"}
{"target": "JMJD8", "technical replicate": "3", "viability, normalised (%)": 64.4, "Call": "active"}
{"target": "UBR2", "technical replicate": "1", "viability, normalised (%)": 37.9, "Call": "active"}
{"target": "UBR2", "technical replicate": "2", "viability, normalised (%)": 43.9, "Call": "active"}
{"target": "UBR2", "technical replicate": "3", "viability, normalised (%)": 40.1, "Call": "active"}
{"target": "INO80B", "technical replicate": "1", "viability, normalised (%)": 61.8, "Call": "active"}
{"target": "INO80B", "technical replicate": "2", "viability, normalised (%)": 32.3, "Call": "active"}
{"target": "INO80B", "technical replicate": "3", "viability, normalised (%)": 52, "Call": "active"}
{"target": "BRD1", "technical replicate": "1", "viability, normalised (%)": 37.9, "Call": "active"}
{"target": "BRD1", "technical replicate": "2", "viability, normalised (%)": 52.3, "Call": "active"}
{"target": "BRD1", "technical replicate": "3", "viability, normalised (%)": 26.6, "Call": "active"}

Copied from the entries so far for reference:
{"target": "UBR2", "technical replicate": "2", "viability, normalised (%)": 43.9, "Call": "active"}
{"target": "UBR2", "technical replicate": "3", "viability, normalised (%)": 40.1, "Call": "active"}
